Measurements published in US12258422B2 (NATIONAL TSING HUA UNIVERSITY, priority 2020, dated 2025).

Experiment: general procedure: solution-phase peptide synthesis; EDCI/HOBt/DIPEA with ZrOCl2 catalyst

cyclo-Gly-Asp-D-Phe-Pip-Arg ⋅ 2HCl
step yield (late stage modification step, relative to cyclo-Gly-Asp(OtBu)-D-Phe-Pip(Boc)-Arg(Mtr), 2HCl): 94%

cyclo-Gly-Asp(O^tBu)-D-Phe-Pip(Boc)-Arg(Mtr)
cyclisation yield (cyclisation step, relative to Fmoc-Gly-Asp(OtBu)-D-Phe-Pip(Boc)-Arg(Mtr)-OMe, 2HCl salt, TFA salt): 41%

Fmoc-Gly-Asp(O^tBu)-D-Phe-Pip(Boc)-Arg(Mtr)-OMe
step yield (coupling step, relative to Fmoc-D-Phe-Pip(Boc)-Arg(Mtr)-OMe, 2HCl salt, TFA salt): 83%
